The record followed here is patent US20170189476A1.

Protein sequences, listed by entry. Tags and fused reporters are not part of them. Residues count along the entry.
UniProt Q15116, residues 25-167: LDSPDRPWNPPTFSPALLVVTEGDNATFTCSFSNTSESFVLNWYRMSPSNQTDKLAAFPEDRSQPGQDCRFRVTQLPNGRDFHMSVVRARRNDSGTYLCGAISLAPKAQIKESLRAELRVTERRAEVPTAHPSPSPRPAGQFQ
UniProt Q02242, residues 25-169: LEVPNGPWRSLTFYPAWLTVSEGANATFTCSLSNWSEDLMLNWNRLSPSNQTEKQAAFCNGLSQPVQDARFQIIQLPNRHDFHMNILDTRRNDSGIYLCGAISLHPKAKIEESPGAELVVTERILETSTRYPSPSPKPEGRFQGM

The target of test [1] is human PD-1 (hPD-1) (human) (UniProt Q15116). Nature of the test: SPR (Proteon XPR36), hPD-1 coated on GLC chip, analyte at 50-1000 nM.
For test [2], the target named is mouse PD-1 (mPD-1) (mouse) (UniProt Q02242). Description: ELISA, mPD-1 coated on plate, fusion protein titrated. In general terms: An ELISA detects its analyte on a solid surface through an enzyme-linked reagent.

No constants are given. Whether binding was seen depends on the method and setting. Some results given as binding are weak or reduced against the parent protein; the word gives no strength.

B1: hPD-L1 (V,19-133)-hyFcM1 (Fc fusion)
chain: FTVTVPKDLYVVEYGSNMTIECKFPVEKQLDLAALIVYWEMEDKNIIQFVHGEEDLKVQHSSYRQRARLLKDQLSLGNAALQITDVKLQDAGVYRCMISYGGADYKRITVKVNAPRNTGRGGEEKKGGKEKEEQEERETKTPECPSHTQPLGVFLFPPKPKDTLMISRTPEVTCVVVDVSQEDPEVQFNWYVDGVEVHNAKTKPREEQFNSTYRVVSVLTVLHQDWLNGKEYKCKVSNKGLPSSIEKTISKAKGQPREPQVYTLPPSQEEMTKNQVSLTCLVKGFYPSDIAVEWESNGQPENNYKTTPPVLDSDGSFFLYSRLTVDKSRWQEGNVFSCSVMHEALHNHYTQKSLSLSLGK
For the molecule B1, the binding entry in test [1] and in test [2] was “binds” in each case.
